Results are given in words; binding and its absence hold for the method and conditions named. Sequences can lack the tags named with a protein.

These results are taken from paper PMC11656743.

This assay concerns the target σ^A, recombinant, tag cleaved (strain LK2832) (M. smegmatis) (UniProt A0QW02). The assay can be described thus: AUC; sedimentation velocity, 20°C, 50 mM HEPES pH 7.5, 100 mM NaCl, 0.5 mM TCEP, 3 mM NaN3; σ^A 19.4 µM, MoaB2 77.6 µM, σ^A:MoaB2 mixtures 1:0.1 to 1:4; both purified.

B1: σ^A, recombinant, tag cleaved (strain LK2832) (protein, UniProt A0QW02 2-466)
chain: GAATKASPATEEPVKRTATKTPAKKAPAKRAAKSAAAKAGGKAPAKKAPAKRAAKGTAAKPEDGVTDDLEVTDDLEAEPGEDLDVEDTDLELDDLDSDDDTAVEDEEEEADAATPAVATAKAADDDIDEPSEKDKASGDFVWDEEESEALRQARKDAELTASADSVRAYLKQIGKVALLNAEEEVELAKRIEAGLYATQKLAELAEKGEKLPVQQRRDMQWICRDGDRAKNHLLEANLRLVVSLAKRYTGRGMAFLDLIQEGNLGLIRAVEKFDYTKGYKFSTYATWWIRQAITRAMADQARTIRIPVHMVEVINKLGRIQRELLQDLGREPTPEELAKEMDITPEKVLEIQQYAREPISLDQTIGDEGDSQLGDFIEDSEAVVAVDAVSFTLLQDQLQSVLETLSEREAGVVRLRFGLTDGQPRTLDEIGQVYGVTRERIRQIESKTMSKLRHPSRSQVLRDYLD
With B1, the binding result is listed as “no binding (tested: 19.4 µM)”.
